# These are yes or no findings as the source states them, for the method shown. In cells and extracts the contact can be indirect. These calls come from enrichment with a bait or labelling near it, and not all partners need be listed.
# Protein sequences, listed by entry. Tags and fused reporters are not part of them. Lines headed by an entry give the natural chain unless they say otherwise; changes in a name come on top. Residues count along the entry.
# UniProt Q8NHS0: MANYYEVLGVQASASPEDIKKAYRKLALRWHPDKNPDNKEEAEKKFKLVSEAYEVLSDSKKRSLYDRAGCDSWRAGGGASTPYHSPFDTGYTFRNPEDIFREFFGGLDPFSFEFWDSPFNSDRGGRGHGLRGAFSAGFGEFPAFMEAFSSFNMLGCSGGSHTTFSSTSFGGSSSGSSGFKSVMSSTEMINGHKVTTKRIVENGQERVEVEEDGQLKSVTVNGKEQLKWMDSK
# UniProt P10809, residues 27-573: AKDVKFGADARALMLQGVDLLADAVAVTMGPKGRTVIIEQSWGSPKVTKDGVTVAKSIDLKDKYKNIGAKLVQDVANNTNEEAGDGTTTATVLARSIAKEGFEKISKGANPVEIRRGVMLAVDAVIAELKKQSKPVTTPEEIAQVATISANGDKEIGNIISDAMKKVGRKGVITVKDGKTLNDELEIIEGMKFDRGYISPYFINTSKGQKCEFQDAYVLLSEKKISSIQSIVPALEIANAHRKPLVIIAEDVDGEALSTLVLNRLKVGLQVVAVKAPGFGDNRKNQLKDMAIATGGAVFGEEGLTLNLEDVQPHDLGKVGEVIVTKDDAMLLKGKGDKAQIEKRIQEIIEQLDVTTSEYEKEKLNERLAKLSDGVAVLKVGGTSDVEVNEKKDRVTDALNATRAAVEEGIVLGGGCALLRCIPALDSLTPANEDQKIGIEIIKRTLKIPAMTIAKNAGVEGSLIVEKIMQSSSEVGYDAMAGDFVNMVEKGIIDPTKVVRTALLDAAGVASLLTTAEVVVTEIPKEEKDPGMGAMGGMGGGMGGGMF
# UniProt Q14145: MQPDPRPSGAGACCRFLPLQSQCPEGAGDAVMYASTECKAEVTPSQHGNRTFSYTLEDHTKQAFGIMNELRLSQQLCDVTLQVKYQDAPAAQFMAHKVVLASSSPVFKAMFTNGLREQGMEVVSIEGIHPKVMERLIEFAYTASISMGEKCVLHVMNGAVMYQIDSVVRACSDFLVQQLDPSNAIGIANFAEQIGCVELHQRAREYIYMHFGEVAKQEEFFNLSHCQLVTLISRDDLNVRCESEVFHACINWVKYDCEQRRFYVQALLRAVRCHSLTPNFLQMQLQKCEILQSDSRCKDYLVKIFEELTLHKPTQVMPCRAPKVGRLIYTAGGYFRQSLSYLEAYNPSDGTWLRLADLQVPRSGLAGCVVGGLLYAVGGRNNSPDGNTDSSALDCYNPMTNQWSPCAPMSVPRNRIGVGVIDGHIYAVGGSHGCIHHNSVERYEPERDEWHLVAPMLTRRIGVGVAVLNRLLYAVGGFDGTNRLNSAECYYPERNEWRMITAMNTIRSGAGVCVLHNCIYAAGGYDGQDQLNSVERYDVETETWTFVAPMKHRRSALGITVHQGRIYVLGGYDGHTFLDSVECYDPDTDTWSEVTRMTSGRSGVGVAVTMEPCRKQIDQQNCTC
# UniProt P30101, residues 25-505: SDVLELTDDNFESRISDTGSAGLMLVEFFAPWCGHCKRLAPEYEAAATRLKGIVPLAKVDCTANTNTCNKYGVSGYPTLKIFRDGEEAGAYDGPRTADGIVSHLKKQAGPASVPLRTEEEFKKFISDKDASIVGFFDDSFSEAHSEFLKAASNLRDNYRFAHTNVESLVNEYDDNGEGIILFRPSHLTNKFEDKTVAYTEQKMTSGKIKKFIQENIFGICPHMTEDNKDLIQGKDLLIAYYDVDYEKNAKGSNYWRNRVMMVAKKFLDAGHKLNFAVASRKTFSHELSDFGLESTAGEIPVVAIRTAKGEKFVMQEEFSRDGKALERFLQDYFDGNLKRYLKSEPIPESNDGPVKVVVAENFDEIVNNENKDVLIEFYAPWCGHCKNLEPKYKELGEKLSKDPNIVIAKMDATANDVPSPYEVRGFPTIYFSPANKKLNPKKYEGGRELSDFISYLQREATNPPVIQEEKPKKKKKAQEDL
# UniProt Q99497: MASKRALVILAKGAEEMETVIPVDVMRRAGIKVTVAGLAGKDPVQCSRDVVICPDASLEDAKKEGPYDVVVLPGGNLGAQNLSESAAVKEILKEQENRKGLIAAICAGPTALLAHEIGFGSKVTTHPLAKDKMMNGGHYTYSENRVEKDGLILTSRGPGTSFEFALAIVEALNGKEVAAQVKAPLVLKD
# UniProt P12277: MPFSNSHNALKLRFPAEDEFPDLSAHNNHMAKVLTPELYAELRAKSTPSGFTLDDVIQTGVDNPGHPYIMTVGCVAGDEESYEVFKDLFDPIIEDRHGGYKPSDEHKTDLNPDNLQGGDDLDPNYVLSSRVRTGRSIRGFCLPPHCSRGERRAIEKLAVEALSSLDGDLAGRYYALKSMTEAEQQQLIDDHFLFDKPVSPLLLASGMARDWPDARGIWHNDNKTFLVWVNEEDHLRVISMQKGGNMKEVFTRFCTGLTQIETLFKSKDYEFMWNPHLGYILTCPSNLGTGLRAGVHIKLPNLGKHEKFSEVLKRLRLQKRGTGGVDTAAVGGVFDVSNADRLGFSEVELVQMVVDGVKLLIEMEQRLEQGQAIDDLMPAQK
# UniProt P60228: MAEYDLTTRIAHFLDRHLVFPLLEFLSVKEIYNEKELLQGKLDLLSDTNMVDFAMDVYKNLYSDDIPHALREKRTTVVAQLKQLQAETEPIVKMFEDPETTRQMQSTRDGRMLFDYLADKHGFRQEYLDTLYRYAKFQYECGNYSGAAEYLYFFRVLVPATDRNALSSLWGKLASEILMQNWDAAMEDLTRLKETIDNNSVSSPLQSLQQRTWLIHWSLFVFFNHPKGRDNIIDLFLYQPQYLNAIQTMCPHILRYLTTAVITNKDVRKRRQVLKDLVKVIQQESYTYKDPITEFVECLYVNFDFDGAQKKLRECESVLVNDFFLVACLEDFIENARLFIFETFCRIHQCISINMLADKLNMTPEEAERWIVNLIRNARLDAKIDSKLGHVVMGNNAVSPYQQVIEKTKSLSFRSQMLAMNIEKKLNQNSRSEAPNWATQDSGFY
# UniProt P04406: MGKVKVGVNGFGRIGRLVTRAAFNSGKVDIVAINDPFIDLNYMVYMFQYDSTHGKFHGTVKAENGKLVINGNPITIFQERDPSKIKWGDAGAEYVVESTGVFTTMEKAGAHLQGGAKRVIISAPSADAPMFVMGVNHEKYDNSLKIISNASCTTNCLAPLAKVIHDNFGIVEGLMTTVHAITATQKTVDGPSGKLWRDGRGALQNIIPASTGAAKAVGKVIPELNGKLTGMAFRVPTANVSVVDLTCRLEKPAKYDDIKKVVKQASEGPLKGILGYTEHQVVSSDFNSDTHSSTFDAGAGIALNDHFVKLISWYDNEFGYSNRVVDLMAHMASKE
# UniProt Q96GX5: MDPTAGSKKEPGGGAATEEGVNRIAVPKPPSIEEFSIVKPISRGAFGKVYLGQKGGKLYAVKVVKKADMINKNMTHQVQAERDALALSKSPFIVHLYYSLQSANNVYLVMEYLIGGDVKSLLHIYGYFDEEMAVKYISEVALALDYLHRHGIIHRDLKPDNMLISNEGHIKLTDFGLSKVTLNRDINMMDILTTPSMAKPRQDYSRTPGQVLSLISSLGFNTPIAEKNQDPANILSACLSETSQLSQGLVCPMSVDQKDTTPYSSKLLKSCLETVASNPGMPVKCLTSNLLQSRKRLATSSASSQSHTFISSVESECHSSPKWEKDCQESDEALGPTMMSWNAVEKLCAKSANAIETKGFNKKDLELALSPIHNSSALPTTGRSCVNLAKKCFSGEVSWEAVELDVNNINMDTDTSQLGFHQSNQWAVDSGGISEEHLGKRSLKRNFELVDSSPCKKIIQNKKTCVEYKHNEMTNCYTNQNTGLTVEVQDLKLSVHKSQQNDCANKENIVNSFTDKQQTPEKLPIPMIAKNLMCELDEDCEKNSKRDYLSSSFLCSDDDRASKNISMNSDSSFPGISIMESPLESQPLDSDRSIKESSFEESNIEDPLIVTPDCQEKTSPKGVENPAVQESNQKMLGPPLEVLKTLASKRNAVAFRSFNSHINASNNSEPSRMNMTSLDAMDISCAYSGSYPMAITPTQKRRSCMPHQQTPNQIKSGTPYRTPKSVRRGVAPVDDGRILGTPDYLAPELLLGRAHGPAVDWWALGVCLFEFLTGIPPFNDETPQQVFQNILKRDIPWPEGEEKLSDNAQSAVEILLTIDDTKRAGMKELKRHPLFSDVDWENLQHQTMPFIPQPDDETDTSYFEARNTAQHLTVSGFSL
# UniProt P04818: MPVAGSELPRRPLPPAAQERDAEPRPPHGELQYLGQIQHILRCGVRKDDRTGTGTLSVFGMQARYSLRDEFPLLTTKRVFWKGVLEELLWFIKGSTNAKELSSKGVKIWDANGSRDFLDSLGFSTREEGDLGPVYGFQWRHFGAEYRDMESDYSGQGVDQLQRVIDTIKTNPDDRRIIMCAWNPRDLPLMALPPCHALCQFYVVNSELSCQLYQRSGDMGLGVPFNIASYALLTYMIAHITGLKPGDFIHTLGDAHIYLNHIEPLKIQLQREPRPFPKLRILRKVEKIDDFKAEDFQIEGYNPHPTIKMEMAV
# UniProt P17028: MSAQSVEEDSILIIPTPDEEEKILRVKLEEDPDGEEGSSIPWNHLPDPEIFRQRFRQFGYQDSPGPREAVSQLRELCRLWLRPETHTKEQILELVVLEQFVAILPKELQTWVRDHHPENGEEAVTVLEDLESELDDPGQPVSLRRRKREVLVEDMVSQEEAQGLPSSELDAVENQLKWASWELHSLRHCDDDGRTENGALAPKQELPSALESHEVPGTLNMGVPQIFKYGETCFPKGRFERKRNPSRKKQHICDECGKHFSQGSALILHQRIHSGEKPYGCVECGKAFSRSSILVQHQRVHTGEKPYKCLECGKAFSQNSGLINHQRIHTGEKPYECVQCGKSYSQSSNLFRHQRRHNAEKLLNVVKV
# Target: FlagDNAJB8 H31Q (H31Q mutant of the human Hsp40 chaperone DNAJB8) (human) (UniProt Q8NHS0)
# Assay: affinity purification with mass spectrometry; FlagDNAJB8 H31Q overexpressed in HEK293T; cells treated 30 min with 1 mM acetochlor, alachlor or propachlor (or vehicle) in serum-free media; RIPA lysis; M2 anti-Flag magnetic beads overnight at 4 °C; four RIPA washes; eluates TMT-labelled, LC/LC-MS/MS (12 biological replicates per treatment)
row,Molecule,binding
1,"ACAA2 (protein, UniProt P42765 1-397) MALLRGVFVVAAKRTPFGAYGGLLKDFTATDLSEFAAKAALSAGKVSPETVDSVIMGNVLQSSSDAIYLARHVGLRVGIPKETPALTINRLCGSGFQSIVNGCQEICVKEAEVVLCGGTESMSQAPYCVRNVRFGTKLGSDIKLEDSLWVSLTDQHVQLPMAMTAENLAVKHKISREECDKYALQSQQRWKAANDAGYFNDEMAPIEVKTKKGKQTMQVDEHARPQTTLEQLQKLPPVFKKDGTVTAGNASGVADGAGAVIIASEDAVKKHNFTPLARIVGYFVSGCDPSIMGIGPVPAISGALKKAGLSLKDMDLVEVNEAFAPQYLAVERSLDLDISKTNVNGGAIALGHPLGGSGSRITAHLVHELRRRGGKYAVGSACIGGGQGIAVIIQSTA",binds
2,"Acetyl-CoA acetyltransferase 1 (ACAT1) (protein, UniProt P24752 34-427) VSKPTLKEVVIVSATRTPIGSFLGSLSLLPATKLGSIAIQGAIEKAGIPKEEVKEAYMGNVLQGGEGQAPTRQAVLGAGLPISTPCTTINKVCASGMKAIMMASQSLMCGHQDVMVAGGMESMSNVPYVMNRGSTPYGGVKLEDLIVKDGLTDVYNKIHMGSCAENTAKKLNIARNEQDAYAINSYTRSKAAWEAGKFGNEVIPVTVTVKGQPDVVVKEDEEYKRVDFSKVPKLKTVFQKENGTVTAANASTLNDGAAALVLMTADAAKRLNVTPLARIVAFADAAVEPIDFPIAPVYAASMVLKDVGLKKEDIAMWEVNEAFSLVVLANIKMLEIDPQKVNINGGAVSLGHPIGMSGARIVGHLTHALKQGEYGLASICNGGGGASAMLIQKL",binds
3,"NNT (protein, UniProt Q13423 44-1086) CKAPVKPGIPYKQLTVGVPKEIFQNEKRVALSPAGVQNLVKQGFNVVVESGAGEASKFSDDHYRVAGAQIQGAKEVLASDLVVKVRAPMVNPTLGVHEADLLKTSGTLISFIYPAQNPELLNKLSQRKTTVLAMDQVPRVTIAQGYDALSSMANIAGYKAVVLAANHFGRFFTGQITAAGKVPPAKILIVGGGVAGLASAGAAKSMGAIVRGFDTRAAALEQFKSLGAEPLEVDLKESGEGQGGYAKEMSKEFIEAEMKLFAQQCKEVDILISTALIPGKKAPVLFNKEMIESMKEGSVVVDLAAEAGGNFETTKPGELYIHKGITHIGYTDLPSRMATQASTLYSNNITKLLKAISPDKDNFYFDVKDDFDFGTMGHVIRGTVVMKDGKVIFPAPTPKNIPQGAPVKQKTVAELEAEKAATITPFRKTMSTASAYTAGLTGILGLGIAAPNLAFSQMVTTFGLAGIVGYHTVWGVTPALHSPLMSVTNAISGLTAVGGLALMGGHLYPSTTSQGLAALAAFISSVNIAGGFLVTQRMLDMFKRPTDPPEYNYLYLLPAGTFVGGYLAALYSGYNIEQIMYLGSGLCCVGALAGLSTQGTARLGNALGMIGVAGGLAATLGVLKPGPELLAQMSGAMALGGTIGLTIAKRIQISDLPQLVAAFHSLVGLAAVLTCIAEYIIEYPHFATDAAANLTKIVAYLGTYIGGVTFSGSLIAYGKLQGLLKSAPLLLPGRHLLNAGLLAASVGGIIPFMVDPSFTTGITCLGSVSALSAVMGVTLTAAIGGADMPVVITVLNSYSGWALCAEGFLLNNNLLTIVGALIGSSGAILSYIMCVAMNRSLANVILGGYGTTSTAGGKPMEISGTHTEINLDNAIDMIREANSIIITPGYGLCAAKAQYPIADLVKMLTEQGKKVRFGIHPVAGRMPGQLNVLLAEAGVPYDIVLEMDEINHDFPDTDLVLVIGANDTVNSAAQEDPNSIIAGMPVLEVWKSKQVIVMKRSLGVGYAAVDNPIFYKPNTAMLLGDAKKTCDALQAKVRESYQK",binds
4,"DLD (protein, UniProt P09622 36-509) ADQPIDADVTVIGSGPGGYVAAIKAAQLGFKTVCIEKNETLGGTCLNVGCIPSKALLNNSHYYHMAHGKDFASRGIEMSEVRLNLDKMMEQKSTAVKALTGGIAHLFKQNKVVHVNGYGKITGKNQVTATKADGGTQVIDTKNILIATGSEVTPFPGITIDEDTIVSSTGALSLKKVPEKMVVIGAGVIGVELGSVWQRLGADVTAVEFLGHVGGVGIDMEISKNFQRILQKQGFKFKLNTKVTGATKKSDGKIDVSIEAASGGKAEVITCDVLLVCIGRRPFTKNLGLEELGIELDPRGRIPVNTRFQTKIPNIYAIGDVVAGPMLAHKAEDEGIICVEGMAGGAVHIDYNCVPSVIYTHPEVAWVGKSEEQLKEEGIEYKVGKFPFAANSRAKTNADTDGMVKILGQKSTDRVLGAHILGPGAGEMVNEAALALEYGASCEDIARVCHAHPTLSEAFREANLAASFGKSINF",binds

# Target: FlagDNAJB8 H31Q (H31Q mutant of the human Hsp40 chaperone DNAJB8) (human) (UniProt Q8NHS0)
# Assay: as above
# Remark: another data set of the same source
row,Molecule,binding
1,HSPD1 (from UniProt P10809 27-573),binds
2,KEAP1 (from UniProt Q14145 1-624),binds
3,PDIA3 (from UniProt P30101 25-505),binds
4,Parkinson's disease protein 7 (PARK7/DJ-1) (from UniProt Q99497 1-189),binds
5,creatine kinase CKB (from UniProt P12277 1-381),binds
6,eukaryotic translation initiation factor 3 subunit E (eIF3e) (from UniProt P60228 1-445),binds
7,glyceraldehyde-3-phosphate dehydrogenase (GAPDH) (from UniProt P04406 1-335),binds
8,microtubule-associated serine/threonine kinase like (MASTL) (from UniProt Q96GX5 1-879),binds
9,thymidylate synthase (TYMS) (from UniProt P04818 1-313),binds
10,zinc finger protein 24 (ZNF24) (from UniProt P17028 1-368),binds

# From publication PMC10367052
